Data on three substances can be found in paper PMC8226082.

Sequences of proteins named here, by UniProt entry; tags and fusion partners are left off.
UniProt Q9QX29: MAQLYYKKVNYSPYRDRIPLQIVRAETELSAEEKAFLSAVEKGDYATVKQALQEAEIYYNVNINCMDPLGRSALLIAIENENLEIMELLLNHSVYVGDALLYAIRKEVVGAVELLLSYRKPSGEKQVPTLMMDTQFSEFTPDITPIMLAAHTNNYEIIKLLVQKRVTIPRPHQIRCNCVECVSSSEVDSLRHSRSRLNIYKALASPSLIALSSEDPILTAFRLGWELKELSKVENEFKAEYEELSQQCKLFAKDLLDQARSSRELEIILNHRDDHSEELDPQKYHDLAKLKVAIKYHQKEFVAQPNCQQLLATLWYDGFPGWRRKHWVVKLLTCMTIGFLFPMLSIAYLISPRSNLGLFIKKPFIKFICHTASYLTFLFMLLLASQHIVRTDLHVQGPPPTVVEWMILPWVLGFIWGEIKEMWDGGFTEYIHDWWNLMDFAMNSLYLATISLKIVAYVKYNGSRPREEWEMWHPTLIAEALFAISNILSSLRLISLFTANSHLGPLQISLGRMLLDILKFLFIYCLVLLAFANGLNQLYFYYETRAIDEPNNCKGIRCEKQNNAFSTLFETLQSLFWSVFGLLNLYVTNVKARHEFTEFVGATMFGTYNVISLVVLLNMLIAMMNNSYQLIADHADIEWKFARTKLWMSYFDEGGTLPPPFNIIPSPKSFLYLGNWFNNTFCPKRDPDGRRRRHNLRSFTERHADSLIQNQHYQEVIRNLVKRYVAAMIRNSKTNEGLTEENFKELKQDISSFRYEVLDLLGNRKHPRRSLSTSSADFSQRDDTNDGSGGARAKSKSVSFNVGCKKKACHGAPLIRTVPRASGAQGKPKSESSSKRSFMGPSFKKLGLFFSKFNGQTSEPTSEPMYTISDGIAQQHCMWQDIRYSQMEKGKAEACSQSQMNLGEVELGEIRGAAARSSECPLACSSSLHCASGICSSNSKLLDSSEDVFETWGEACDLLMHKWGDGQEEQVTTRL
UniProt O88427: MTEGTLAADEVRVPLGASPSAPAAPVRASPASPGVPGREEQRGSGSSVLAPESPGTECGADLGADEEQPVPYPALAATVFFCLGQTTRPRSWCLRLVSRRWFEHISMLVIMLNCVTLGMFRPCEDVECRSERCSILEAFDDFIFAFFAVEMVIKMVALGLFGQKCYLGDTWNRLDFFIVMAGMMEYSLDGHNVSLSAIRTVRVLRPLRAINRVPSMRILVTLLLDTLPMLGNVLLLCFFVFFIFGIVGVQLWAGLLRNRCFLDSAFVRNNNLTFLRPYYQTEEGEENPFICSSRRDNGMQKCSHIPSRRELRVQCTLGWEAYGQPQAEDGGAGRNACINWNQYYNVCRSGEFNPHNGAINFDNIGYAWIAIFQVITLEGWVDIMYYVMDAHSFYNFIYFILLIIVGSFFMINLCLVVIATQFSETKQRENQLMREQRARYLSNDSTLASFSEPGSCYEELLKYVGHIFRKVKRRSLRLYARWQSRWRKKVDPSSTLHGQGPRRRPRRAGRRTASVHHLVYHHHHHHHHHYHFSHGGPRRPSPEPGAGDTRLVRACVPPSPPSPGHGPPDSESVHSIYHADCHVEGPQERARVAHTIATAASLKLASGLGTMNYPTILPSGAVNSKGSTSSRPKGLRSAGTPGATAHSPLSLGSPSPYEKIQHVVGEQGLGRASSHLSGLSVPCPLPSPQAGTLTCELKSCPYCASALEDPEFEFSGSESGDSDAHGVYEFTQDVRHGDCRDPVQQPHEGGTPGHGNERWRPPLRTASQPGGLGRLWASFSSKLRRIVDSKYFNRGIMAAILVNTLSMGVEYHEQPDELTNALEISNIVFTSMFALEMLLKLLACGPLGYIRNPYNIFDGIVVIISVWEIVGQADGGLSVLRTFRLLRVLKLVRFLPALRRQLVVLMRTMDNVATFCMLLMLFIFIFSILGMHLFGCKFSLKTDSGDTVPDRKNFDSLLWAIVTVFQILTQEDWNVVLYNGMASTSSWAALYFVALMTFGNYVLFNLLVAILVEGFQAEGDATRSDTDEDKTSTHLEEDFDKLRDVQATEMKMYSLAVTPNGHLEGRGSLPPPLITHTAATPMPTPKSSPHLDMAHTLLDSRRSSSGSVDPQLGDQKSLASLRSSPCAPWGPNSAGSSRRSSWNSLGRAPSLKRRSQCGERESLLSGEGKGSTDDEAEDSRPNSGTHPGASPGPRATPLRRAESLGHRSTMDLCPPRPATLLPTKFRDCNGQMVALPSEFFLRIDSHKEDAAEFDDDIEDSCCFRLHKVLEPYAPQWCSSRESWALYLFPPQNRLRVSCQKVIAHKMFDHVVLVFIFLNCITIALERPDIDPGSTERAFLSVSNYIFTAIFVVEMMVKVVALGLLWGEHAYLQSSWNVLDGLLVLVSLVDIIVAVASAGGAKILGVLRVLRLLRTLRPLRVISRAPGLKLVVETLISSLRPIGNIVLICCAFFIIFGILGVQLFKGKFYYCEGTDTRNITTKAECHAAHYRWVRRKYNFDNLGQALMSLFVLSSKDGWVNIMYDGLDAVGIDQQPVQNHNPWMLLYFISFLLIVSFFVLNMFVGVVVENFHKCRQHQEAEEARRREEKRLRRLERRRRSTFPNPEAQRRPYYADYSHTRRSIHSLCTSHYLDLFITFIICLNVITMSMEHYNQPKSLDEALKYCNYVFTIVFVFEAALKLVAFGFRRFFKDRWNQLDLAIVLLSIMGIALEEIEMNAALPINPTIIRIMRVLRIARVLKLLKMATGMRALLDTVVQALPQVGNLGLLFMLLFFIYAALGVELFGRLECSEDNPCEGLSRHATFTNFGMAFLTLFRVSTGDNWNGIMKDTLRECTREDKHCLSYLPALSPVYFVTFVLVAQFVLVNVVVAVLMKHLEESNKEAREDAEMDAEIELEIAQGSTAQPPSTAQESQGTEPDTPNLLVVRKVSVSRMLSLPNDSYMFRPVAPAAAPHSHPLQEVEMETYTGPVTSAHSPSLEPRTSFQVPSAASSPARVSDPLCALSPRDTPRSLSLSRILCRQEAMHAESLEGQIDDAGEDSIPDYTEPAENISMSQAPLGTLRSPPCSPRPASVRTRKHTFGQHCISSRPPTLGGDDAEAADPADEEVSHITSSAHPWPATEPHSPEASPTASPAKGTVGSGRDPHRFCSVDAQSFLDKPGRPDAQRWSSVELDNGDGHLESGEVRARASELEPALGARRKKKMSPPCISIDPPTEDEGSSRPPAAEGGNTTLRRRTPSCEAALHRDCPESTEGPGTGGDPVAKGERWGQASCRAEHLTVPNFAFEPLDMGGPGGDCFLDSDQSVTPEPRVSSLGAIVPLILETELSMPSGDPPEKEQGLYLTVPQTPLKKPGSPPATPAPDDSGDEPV
UniProt Q61056: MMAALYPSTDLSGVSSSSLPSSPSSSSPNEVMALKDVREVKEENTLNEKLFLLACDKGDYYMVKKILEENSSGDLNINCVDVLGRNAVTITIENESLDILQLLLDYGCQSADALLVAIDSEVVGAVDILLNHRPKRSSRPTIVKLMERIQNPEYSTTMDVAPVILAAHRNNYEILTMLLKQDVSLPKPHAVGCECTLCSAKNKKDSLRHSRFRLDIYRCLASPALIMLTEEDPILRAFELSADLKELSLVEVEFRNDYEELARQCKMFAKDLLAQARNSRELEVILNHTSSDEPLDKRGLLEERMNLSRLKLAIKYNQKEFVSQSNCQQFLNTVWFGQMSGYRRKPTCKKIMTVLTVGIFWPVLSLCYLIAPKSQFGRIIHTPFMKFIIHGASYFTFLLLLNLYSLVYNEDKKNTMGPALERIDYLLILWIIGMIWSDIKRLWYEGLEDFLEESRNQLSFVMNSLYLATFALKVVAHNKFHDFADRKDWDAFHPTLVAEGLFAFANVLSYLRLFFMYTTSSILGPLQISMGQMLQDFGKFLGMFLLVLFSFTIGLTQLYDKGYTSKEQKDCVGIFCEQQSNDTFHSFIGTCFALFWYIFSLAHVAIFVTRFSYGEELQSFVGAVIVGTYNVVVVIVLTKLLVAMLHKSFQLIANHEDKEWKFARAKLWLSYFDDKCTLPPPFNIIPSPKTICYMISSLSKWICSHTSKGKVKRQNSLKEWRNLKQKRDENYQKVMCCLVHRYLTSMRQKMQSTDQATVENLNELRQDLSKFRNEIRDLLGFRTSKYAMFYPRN

Experiment [1] addresses TRPC5 channel (Transient Receptor Potential Cation channel 5) (mouse (endogenous in brain and hypothalamus)) (UniProt Q9QX29). The experiment in a line: co-IP; adult mouse whole brain and hypothalamus homogenates; primary antibody (α1G, α1H, TRPC5, TRPC1 or control IgG) at 4°C, protein A/G agarose beads, elution in 0.1 M glycine pH 3.5, Western blot; n = 3. (Immunoblotting shows a protein as a band on a membrane.)

The target of experiment [2] is CaV3.2 (α1H) T-type calcium channel (mouse (endogenous in brain and hypothalamus)) (UniProt O88427). Described as above.

No constants are given. Whether binding was seen depends on the method and setting. In cells and extracts the contact can be indirect. Some binding calls cover weakened binding; strength is not graded here.

As for “CaV3.2 (α1H) T-type calcium channel (from UniProt O88427 1-2365)”, in experiment [1], the binding entry is given as “binds”.
With “TRPC1 channel (Transient Receptor Potential Cation channel 1) (from UniProt Q61056 1-793)”, the binding result in experiment [2] and in experiment [1] was “binds” in each case.
For “TRPC5 channel (Transient Receptor Potential Cation channel 5) (from UniProt Q9QX29 1-975)”, in experiment [2], the binding result is given as “binds”.
